Assay results as given in patent publication US20100041045A1, “NUCLEIC ACID FLUORESCENT STAINS” (SIGMA-ALDRICH CO., priority 2007, published 2010).

Tested on: human alu-consnesus sequence
Experiment: Real-time qPCR (Example 9)
Assay type: biochemical
Conditions: Hex filter set
Experimental: PCR was performed on human genomic DNA obtained from 0.16 million human peripheral blood leukocytes by direct lysis in a volume of 1 ml as described by Christopherson et al, PCR-Based Assay To Quantify Human Immunodeficiency Virus Type 1 DNA In Peripheral Blood Mononuclear Cells, 2000, J Clin Microbiol., pp. 630-634, Vol. 38. […] Additionally, a non-template control containing deionised water as sample was used. Two μl per sample were then used for real-time PCR as follows: PCR reactions were run in JumpStart™ ReadyMix™ (Sigma Aldrich, order number p2893), containing salt, buffer, Taq-DNA polymerase and deoxynucleotidetriphosphates in a final volume of 32 μl. PCR primers were added to a final concentration of 1 μM. To obtain optimal performance in real time PCR, the PCR mix was supplemented with additional MgCL2 to a final concentration of 3 mM. The DNA binding dye Nancy-520 was added to a final concentration of 200 nM. PCR primers mf39 (5′-[…]-3′) and mf40 (5′-[…]-3′) were used at a final concentration of 1 μM. […]
Data (FIG. 9A, 9C, 9D) were analyzed using the IQ5 software (version 2.0) or by linear regression analysis (FIG. 9B) using the statistical software GraphPad Prism version 5.01 (GraphPad Software, Inc., La Jolla, Calif.) […]

CN1C(c2ccccc2)=C/C(=C\c2sc3ccccc3[n+]2CCCCO)c2ccccc21 [Compound 9]
observed slope of log10 copy numbers versus ct-values (expected −0.301): −0.29
efficiency of the PCR (from linear regression): 97%
